Sequences and labels used below:
B1: M13 phage displaying polypeptide no. 61 (peptide, not shown: large carriers)
chain: GFAKQWHVDAND
B2: M13 phage displaying polypeptide no. 79 (peptide, not shown: large carriers)
chain: HWQVPTGNHLWS
B3: M13 phage displaying polypeptide no. 60 (peptide, not shown: large carriers)
chain: NSDHWYAYWLIN
B4: M13 phage displaying polypeptide no. 23 (peptide, not shown: large carriers)
chain: AMTWEDWWLYGR
B5: M13 phage displaying polypeptide no. 75 (peptide, not shown: large carriers)
chain: NHGSAWQDYYLK
B6: M13 phage displaying polypeptide no. 66 (peptide, not shown: large carriers)
chain: EPTWQWYWGQYS

6 molecules from patent USRE49026 can be followed below.

Results are given in words; binding and its absence hold for the method and conditions named. Binding calls can cover weak binding; strength is not graded here.

For this test, the target named is Δ9-Flag (soluble recombinant Δ9 splice variant of IL-23Rα, Flag-tagged) (human). Nature of the test: phage display panning, anti-Flag affinity gel.
As to B1, the binding entry is on record as “binds”.

On to B2, for which the binding result is “binds”.

With B3, the binding result is recorded as “binds”.

For B4, the binding entry is “binds”.

As to B5, the binding result is listed as “binds”.

As to B6, the binding entry is given as “binds”.
